Results published in PMC7049810.
These are yes or no findings as the source states them, for the method shown.

Protein sequences, listed by entry. Tags and fused reporters are not part of them. Residues count along the entry.
UniProt P0AFB1, residues 20-294: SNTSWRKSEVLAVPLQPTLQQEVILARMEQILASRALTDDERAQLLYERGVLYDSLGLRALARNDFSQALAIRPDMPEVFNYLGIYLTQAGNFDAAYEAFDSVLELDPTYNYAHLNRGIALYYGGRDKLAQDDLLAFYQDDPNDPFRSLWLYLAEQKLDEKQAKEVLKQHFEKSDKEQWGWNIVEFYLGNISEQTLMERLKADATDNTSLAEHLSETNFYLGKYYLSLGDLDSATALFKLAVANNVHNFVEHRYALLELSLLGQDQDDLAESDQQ

Tests used:
[1] = target: NlpI, soluble version lacking its membrane anchor (Escherichia coli) (UniProt P0AFB1); assay: pull-down; Ni2+-NTA agarose beads; His-tagged protein with untagged or native ligand, overnight at 4°C; 10 mM HEPES/NaOH, 10 mM MgCl2, 150 mM NaCl, 0.05% Triton X-100, pH 7.5; washes with 30 mM imidazole; SDS-PAGE; both purified
[2] = target: NlpI, soluble version lacking its membrane anchor (Escherichia coli) (UniProt P0AFB1); assay: MST; titration: NT647-labelled protein against a two-fold serial dilution (16 steps) of unlabelled ligand; 25 mM HEPES/NaOH, 150 mM NaCl, 0.05% Triton X-100, pH 7.5; Monolith NT.115; apparent constants; for NlpI with itself: dimer to monomers; both purified

B1: carboxypeptidase PBP5 (enzyme, UniProt P0AEB2 30-403)
chain: DDLNIKTMIPGVPQIDAESYILIDYNSGKVLAEQNADVRRDPASLTKMMTSYVIGQAMKAGKFKETDLVTIGNDAWATGNPVFKGSSLMFLKPGMQVPVSQLIRGINLQSGNDACVAMADFAAGSQDAFVGLMNSYVNALGLKNTHFQTVHGLDADGQYSSARDMALIGQALIRDVPNEYSIYKEKEFTFNGIRQLNRNGLLWDNSLNVDGIKTGHTDKAGYNLVASATEGQMRLISAVMGGRTFKGREAESKKLLTWGFRFFETVNPLKVGKEFASEPVWFGDSDRASLGVDKDVYLTIPRGRMKDLKASYVLNSSELHAPLQKNQVVGTINFQLDGKTIEQRPLVVLQEIPEGNFFGKIIDYIKLMFHHWFG
[1]
  binding: no binding

B2: lytic transglycosylase Slt (enzyme, UniProt P0AGC3 28-645)
chain: DSLDEQRSRYAQIKQAWDNRQMDVVEQMMPGLKDYPLYPYLEYRQITDDLMNQPAVTVTNFVRANPTLPPARTLQSRFVNELARREDWRGLLAFSPEKPGTTEAQCNYYYAKWNTGQSEEAWQGAKELWLTGKSQPNACDKLFSVWRASGKQDPLAYLERIRLAMKAGNTGLVTVLAGQMPADYQTIASAIISLANNPNTVLTFARTTGATDFTRQMAAVAFASVARQDAENARLMIPSLAQAQQLNEDQIQELRDIVAWRLMGNDVTDEQAKWRDDAIMRSQSTSLIERRVRMALGTGDRRGLNTWLARLPMEAKEKDEWRYWQADLLLERGREAEAKEILHQLMQQRGFYPMVAAQRIGEEYELKIDKAPQNVDSALTQGPEMARVRELMYWNLDNTARSEWANLVKSKSKTEQAQLARYAFNNQWWDLSVQATIAGKLWDHLEERFPLAYNDLFKRYTSGKEIPQSYAMAIARQESAWNPKVKSPVGASGLMQIMPGTATHTVKMFSIPGYSSPGQLLDPETNINIGTSYLQYVYQQFGNNRIFSSAAYNAGPGRVRTWLGNSAGRIDAVAFVESIPFSETRGYVKNVLAYDAYYRYFMGDKPTLMSATEWGRRY
[1]
  binding: no binding

B3: LpoA, purified (protein, UniProt P45464 27-678)
chain: CGTHTPDQSTAYMQGTAQADSAFYLQQMQQSSDDTRINWQLLAIRALVKEGKTGQAVELFNQLPQELNDAQRREKTLLAVEIKLAQKDFAGAQNLLAKITPADLEQNQQARYWQAKIDASQGRPSIDLLRALIAQEPLLGAKEKQQNIDATWQALSSMTQEQANTLVINADENILQGWLDLQRVWFDNRNDPDMMKAGIADWQKRYPNNPGAKMLPTQLVNVKAFKPASTNKIALLLPLNGQAAVFGRTIQQGFEAAKNIGTQPVAAQVAAAPAADVAEQPQPQTVDGVASPAQASVSDLTGEQPAAQPVPVSAPATSTAAVSAPANPSAELKIYDTSSQPLSQILSQVQQDGASIVVGPLLKNNVEELLKSNTPLNVLALNQPENIENRVNICYFALSPEDEARDAARHIRDQGKQAPLVLIPRSSLGDRVANAFAQEWQKLGGGTVLQQKFGSTSELRAGVNGGSGIALTGSPITLRATTDSGMTTNNPTLQTTPTDDQFTNNGGRVDAVYIVATPGEIAFIKPMIAMRNGSQSGATLYASSRSAQGTAGPDFRLEMEGLQYSEIPMLAGGNLPLMQQALSAVNNDYSLARMYAMGVDAWSLANHFSQMRQVQGFEINGNTGSLTANPDCVINRNLSWLQYQQGQVVPVS
modifications: where used as the labelled protein in MST: NT647 RED-Maleimide dye on cysteines
[2]
  binding: no binding (tested: 30 μM)
